Experimental data from patent US20220153851A1.
These are yes or no findings as the source states them, for the method shown. Some results given as binding are weak or reduced against the parent protein; the word gives no strength.

The chains behind the UniProt entries cited, without tags or fusion partners. Where a name states a change or a piece, a line headed by the entry shows the natural chain unless it says otherwise.
UniProt P07333: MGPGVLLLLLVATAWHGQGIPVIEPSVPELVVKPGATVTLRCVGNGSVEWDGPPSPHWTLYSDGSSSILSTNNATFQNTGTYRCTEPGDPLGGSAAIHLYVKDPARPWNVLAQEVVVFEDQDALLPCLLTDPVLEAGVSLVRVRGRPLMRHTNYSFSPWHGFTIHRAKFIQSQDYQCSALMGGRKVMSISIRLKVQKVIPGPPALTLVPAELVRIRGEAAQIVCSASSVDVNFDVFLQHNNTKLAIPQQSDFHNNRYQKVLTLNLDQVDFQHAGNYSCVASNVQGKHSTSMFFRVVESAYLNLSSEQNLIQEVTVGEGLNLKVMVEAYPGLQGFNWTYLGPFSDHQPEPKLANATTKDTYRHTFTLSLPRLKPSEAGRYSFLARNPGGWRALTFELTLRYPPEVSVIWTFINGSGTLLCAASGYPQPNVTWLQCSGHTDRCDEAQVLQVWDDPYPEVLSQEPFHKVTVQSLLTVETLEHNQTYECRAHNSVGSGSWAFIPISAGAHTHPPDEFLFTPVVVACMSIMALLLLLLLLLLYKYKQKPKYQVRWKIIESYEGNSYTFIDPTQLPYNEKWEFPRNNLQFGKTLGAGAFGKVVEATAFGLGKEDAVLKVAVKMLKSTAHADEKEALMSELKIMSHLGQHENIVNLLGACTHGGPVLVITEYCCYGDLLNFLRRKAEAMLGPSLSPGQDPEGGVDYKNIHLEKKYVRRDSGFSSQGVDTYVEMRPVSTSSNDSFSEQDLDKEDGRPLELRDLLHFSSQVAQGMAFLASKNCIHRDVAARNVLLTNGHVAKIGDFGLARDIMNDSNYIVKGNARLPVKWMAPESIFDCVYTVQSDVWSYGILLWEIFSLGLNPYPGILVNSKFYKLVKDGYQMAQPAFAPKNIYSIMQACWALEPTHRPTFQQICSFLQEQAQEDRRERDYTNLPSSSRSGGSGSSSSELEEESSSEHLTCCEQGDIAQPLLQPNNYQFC

Biological target: human CSF1R on CSF1R (SEQ ID NO: 2)-transfected CHO cells (human) (UniProt P07333)
Experiment: binding to CSF1R on the surface of cells; cells and method not named, data not shown

B1: h0311-L0H1 (antibody, human IgG4 S228P, kappa, V domains shown)
VH: QVQLVQSGAEVKKPGSSVKVSCKASGYIFTDYNMHWVRQAPGQGLEWMGEINPNNGVVVYNQKFKGRVTITVDKSTSTAYMELSSLRSEDTAVYYCTRALYHSNFGWYFDSWGQGTLVTVSS
VL: EIVLTQSPATLSLSPGERATLSCKASQSVDYDGDSHMNWYQQKPGQAPRLLIYTASNLESGIPARFSGSGSGTDFTLTISSLEPEDFAVYYCQQGNEDPWTFGQGTKVEIKR
  binding: binds
